Results published in the supplement of paper PMC5355238.
Counter-ions that a name gives are not always drawn. Some of the results follow. Most entries show no effect beyond the scatter of the controls.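 Reh, a human leukemia cell line, is read out by flow cytometry as the median γH2AX antibody signal in S-phase cells; the score counts standard deviations from the median difference of each paired plate set. Scores above 2.5 were candidate hits; scores below -2 mark compounds lowering MK1775-induced damage.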

These compounds were tested on Reh (assay: Z' of S-phase gammaH2AX difference (drug + MK1775 minus drug alone) (Z-score); higher = stronger synergistic S-phase DNA damage with MK1775). Conditions: MK1775 concentration 400 nM; first compound 10 µM; 4 h.
`Cc1ccc(S(=O)(=O)C=CC#N)cc1` + C=CCn1c(=O)c2cnc(Nc3ccc(N4CCN(C)CC4)cc3)nc2n1-c1cccc(C(C)(C)O)n1 [MK1775] was tested, and the “Z' of S-phase gammaH2AX difference (Z-score)” value was inactive: -1.1. `Cc1ccc(N(CC2=NCCN2)c2cccc(O)c2)cc1` [Phentolamine mesylate] + C=CCn1c(=O)c2cnc(Nc3ccc(N4CCN(C)CC4)cc3)nc2n1-c1cccc(C(C)(C)O)n1 [MK1775] was tested, and the “Z' of S-phase gammaH2AX difference (Z-score)” value was inactive: -0.83. `CNC(=O)[C@H]1O[C@@H](n2cnc3c(N)ncnc32)[C@H](O)[C@@H]1O` [5'-N-Methyl carboxamidoadenosine] + C=CCn1c(=O)c2cnc(Nc3ccc(N4CCN(C)CC4)cc3)nc2n1-c1cccc(C(C)(C)O)n1 [MK1775] was tested, and the “Z' of S-phase gammaH2AX difference (Z-score)” value was inactive: -0.354. `CCCCCCCCCCCCCCCC(=O)NCC(COP(=O)([O-])OCC[N+](C)(C)C)OCC` (racemic) [rac-2-Ethoxy-3-hexadecanamido-1-propylphosphocholine] + C=CCn1c(=O)c2cnc(Nc3ccc(N4CCN(C)CC4)cc3)nc2n1-c1cccc(C(C)(C)O)n1 [MK1775] was tested, and the “Z' of S-phase gammaH2AX difference (Z-score)” value was inactive: -0.391. With `CCc1ccc(CCOc2ccc(CC3SC(=O)NC3=O)cc2)nc1` (stereo not drawn) [Pioglitazone (Actos)] + C=CCn1c(=O)c2cnc(Nc3ccc(N4CCN(C)CC4)cc3)nc2n1-c1cccc(C(C)(C)O)n1 [MK1775] the “Z' of S-phase gammaH2AX difference (Z-score)” value was inactive: 0.0554. `O=C(CCCCCCC(=O)Nc1cccnc1)NO` [Pyroxamide] + C=CCn1c(=O)c2cnc(Nc3ccc(N4CCN(C)CC4)cc3)nc2n1-c1cccc(C(C)(C)O)n1 [MK1775] was tested, and the “Z' of S-phase gammaH2AX difference (Z-score)” value was inactive: 0.169. For `CC(C(=O)O)c1ccc(CC2CCCC2=O)cc1` (stereo not drawn) [loxoprofen] + C=CCn1c(=O)c2cnc(Nc3ccc(N4CCN(C)CC4)cc3)nc2n1-c1cccc(C(C)(C)O)n1 [MK1775], the “Z' of S-phase gammaH2AX difference (Z-score)” value was inactive: -1.04. With `NCCCCC(=O)O` [5-Aminovaleric acid hydrochloride] + C=CCn1c(=O)c2cnc(Nc3ccc(N4CCN(C)CC4)cc3)nc2n1-c1cccc(C(C)(C)O)n1 [MK1775] the “Z' of S-phase gammaH2AX difference (Z-score)” value was inactive: 0.0768. `OCCN1CCN(CCCN2c3ccccc3Sc3ccc(C(F)(F)F)cc32)CC1` [Fluphenazine dihydrochloride] + C=CCn1c(=O)c2cnc(Nc3ccc(N4CCN(C)CC4)cc3)nc2n1-c1cccc(C(C)(C)O)n1 [MK1775] was tested, and the “Z' of S-phase gammaH2AX difference (Z-score)” value was inactive: -0.955. In the case of `O=C(c1cc(Cc2n[nH]c(=O)c3ccccc23)ccc1F)N1CCN(C(=O)C2CC2)CC1` [Olaparib (AZD2281)] + C=CCn1c(=O)c2cnc(Nc3ccc(N4CCN(C)CC4)cc3)nc2n1-c1cccc(C(C)(C)O)n1 [MK1775], the “Z' of S-phase gammaH2AX difference (Z-score)” value is reported as inactive: 0.014. With `Clc1ccc2c(c1)C(N1CCNCC1)=Nc1ccccc1O2` [Amoxapine] + C=CCn1c(=O)c2cnc(Nc3ccc(N4CCN(C)CC4)cc3)nc2n1-c1cccc(C(C)(C)O)n1 [MK1775] the “Z' of S-phase gammaH2AX difference (Z-score)” value was inactive: -0.127. In the case of `O=C(O)CCc1nc(-c2ccccc2)c(-c2ccccc2)o1` [Oxaprozin] + C=CCn1c(=O)c2cnc(Nc3ccc(N4CCN(C)CC4)cc3)nc2n1-c1cccc(C(C)(C)O)n1 [MK1775], the “Z' of S-phase gammaH2AX difference (Z-score)” value is reported as inactive: -0.0825. With `O=C(OCCN1CCOCC1)C1(c2ccccc2)CCCCC1` + C=CCn1c(=O)c2cnc(Nc3ccc(N4CCN(C)CC4)cc3)nc2n1-c1cccc(C(C)(C)O)n1 [MK1775] the “Z' of S-phase gammaH2AX difference (Z-score)” value was inactive: 0.272. For `CC(C)C[C@H](NC(=O)[C@H](Cc1ccccc1)NC(=O)c1cnccn1)B(O)O` [Bortezomib (Velcade)] + C=CCn1c(=O)c2cnc(Nc3ccc(N4CCN(C)CC4)cc3)nc2n1-c1cccc(C(C)(C)O)n1 [MK1775], the “Z' of S-phase gammaH2AX difference (Z-score)” value was inactive: -1.02. In the case of `COc1ccc(CC(C)NCC(O)c2ccc(O)c(NC=O)c2)cc1` (stereo not drawn) [Formoterol] + C=CCn1c(=O)c2cnc(Nc3ccc(N4CCN(C)CC4)cc3)nc2n1-c1cccc(C(C)(C)O)n1 [MK1775], the “Z' of S-phase gammaH2AX difference (Z-score)” value is reported as active: 4.45. In the case of `CS(=O)(=O)c1ccc(C(=O)Nc2ccc(Cl)c(-c3ccccn3)c2)c(Cl)c1` [Vismodegib (GDC-0449)] + C=CCn1c(=O)c2cnc(Nc3ccc(N4CCN(C)CC4)cc3)nc2n1-c1cccc(C(C)(C)O)n1 [MK1775], the “Z' of S-phase gammaH2AX difference (Z-score)” value is reported as inactive: 0.129. `CCCCN1CCC(n2c(=O)[nH]c3ccccc32)CC1` [NS 521 oxalate] + C=CCn1c(=O)c2cnc(Nc3ccc(N4CCN(C)CC4)cc3)nc2n1-c1cccc(C(C)(C)O)n1 [MK1775] was tested, and the “Z' of S-phase gammaH2AX difference (Z-score)” value was inactive: -0.252. `CC1(C)CCC(c2ccc(Cl)cc2)=C(CN2CCN(c3ccc(C(=O)NS(=O)(=O)c4ccc(N[C@H](CCN5CCOCC5)CSc5ccccc5)c(S(=O)(=O)C(F)(F)F)c4)cc3)CC2)C1` [ABT-263 (Navitoclax)] + C=CCn1c(=O)c2cnc(Nc3ccc(N4CCN(C)CC4)cc3)nc2n1-c1cccc(C(C)(C)O)n1 [MK1775] was tested, and the “Z' of S-phase gammaH2AX difference (Z-score)” value was inactive: -0.000739. In the case of `CCOC(=O)N1CCC(=C2c3ccc(Cl)cc3CCc3cccnc32)CC1` [Loratadine] + C=CCn1c(=O)c2cnc(Nc3ccc(N4CCN(C)CC4)cc3)nc2n1-c1cccc(C(C)(C)O)n1 [MK1775], the “Z' of S-phase gammaH2AX difference (Z-score)” value is reported as inactive: 1.48. `O=C1NC(=O)/C(=C\c2cccc(C(F)(F)F)c2)S1` + C=CCn1c(=O)c2cnc(Nc3ccc(N4CCN(C)CC4)cc3)nc2n1-c1cccc(C(C)(C)O)n1 [MK1775] was tested, and the “Z' of S-phase gammaH2AX difference (Z-score)” value was inactive: 0.341. For `C[C@]12CCC(=O)C=C1CC[C@@H]1[C@@H]2C(=O)C[C@@]2(C)[C@H]1CC[C@]2(O)C(=O)CO` [Cortisone] + C=CCn1c(=O)c2cnc(Nc3ccc(N4CCN(C)CC4)cc3)nc2n1-c1cccc(C(C)(C)O)n1 [MK1775], the “Z' of S-phase gammaH2AX difference (Z-score)” value was inactive: -0.214. With `COCCCC/C(=N\OCCN)c1ccc(C(F)(F)F)cc1` [Fluvoxamine maleate] + C=CCn1c(=O)c2cnc(Nc3ccc(N4CCN(C)CC4)cc3)nc2n1-c1cccc(C(C)(C)O)n1 [MK1775] the “Z' of S-phase gammaH2AX difference (Z-score)” value was inactive: 0.585. For `O=S(=O)(O)C1CCNCC1` [Piperidine-4-sulphonic acid] + C=CCn1c(=O)c2cnc(Nc3ccc(N4CCN(C)CC4)cc3)nc2n1-c1cccc(C(C)(C)O)n1 [MK1775], the “Z' of S-phase gammaH2AX difference (Z-score)” value was inactive: -0.689.
